Test results reported in article doi:10.1101/2021.06.24.449730.
These are yes or no findings as the source states them, for the method shown. Binding seen in cells or lysates may run through a third protein. A result given as binding can be weak or reduced; the word gives no strength. Tags and fused reporters may be left off the sequences shown.

T1: full-length RanGAP2-GFP (N. benthamiana) (UniProt A5JGX6)
T1 sequence: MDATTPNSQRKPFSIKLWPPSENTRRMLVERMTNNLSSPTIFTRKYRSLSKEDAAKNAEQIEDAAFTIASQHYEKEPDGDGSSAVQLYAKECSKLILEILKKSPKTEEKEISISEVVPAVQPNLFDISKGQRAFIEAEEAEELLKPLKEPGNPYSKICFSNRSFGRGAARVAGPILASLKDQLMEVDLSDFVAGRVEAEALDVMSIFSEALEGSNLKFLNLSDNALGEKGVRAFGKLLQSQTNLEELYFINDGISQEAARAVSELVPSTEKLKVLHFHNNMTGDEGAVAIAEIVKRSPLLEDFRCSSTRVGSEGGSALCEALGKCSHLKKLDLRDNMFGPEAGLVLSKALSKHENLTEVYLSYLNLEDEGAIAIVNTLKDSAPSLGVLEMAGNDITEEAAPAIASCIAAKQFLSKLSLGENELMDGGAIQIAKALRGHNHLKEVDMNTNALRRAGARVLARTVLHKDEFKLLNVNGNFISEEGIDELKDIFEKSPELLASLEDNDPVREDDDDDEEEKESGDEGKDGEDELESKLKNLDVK


Tests used:
Assay in all cases: co-IP
[1] = biological target: T1, full-length RanGAP2-GFP (N. benthamiana)
[2] = biological target: full-length Gpa2 N-terminally tagged with 4×Myc (potato (Solanum tuberosum spp. andigena)) (UniProt Q9S7Q4)
[3] = biological target: full-length Rx1 tagged with 4×Myc (potato (Solanum tuberosum spp. andigena))
[4] = substrate: CC domain of Rx1 (potato (Solanum tuberosum spp. andigena))

Row | Molecule | binding [1] | binding [2] | binding [3] | binding [4]
1 | Gp-RBP-1 variant D383-1, 8×HA-tagged (Globodera pallida) | binds | – | – | –
2 | Gp-RBP-1 variant Rook4, 8×HA-tagged (Globodera pallida) | binds | – | – | –
3 | coat protein of Potato Virus X strain HB (CP105), 4×HA-tagged | binds | – | – | –
4 | coat protein of Potato Virus X strain UK3 (CP106), 4×HA-tagged | binds | – | – | –
5 | full-length RanGAP2-GFP (protein, UniProt A5JGX6 1-541) MDATTPNSQRKPFSIKLWPPSENTRRMLVERMTNNLSSPTIFTRKYRSLSKEDAAKNAEQIEDAAFTIASQHYEKEPDGDGSSAVQLYAKECSKLILEILKKSPKTEEKEISISEVVPAVQPNLFDISKGQRAFIEAEEAEELLKPLKEPGNPYSKICFSNRSFGRGAARVAGPILASLKDQLMEVDLSDFVAGRVEAEALDVMSIFSEALEGSNLKFLNLSDNALGEKGVRAFGKLLQSQTNLEELYFINDGISQEAARAVSELVPSTEKLKVLHFHNNMTGDEGAVAIAEIVKRSPLLEDFRCSSTRVGSEGGSALCEALGKCSHLKKLDLRDNMFGPEAGLVLSKALSKHENLTEVYLSYLNLEDEGAIAIVNTLKDSAPSLGVLEMAGNDITEEAAPAIASCIAAKQFLSKLSLGENELMDGGAIQIAKALRGHNHLKEVDMNTNALRRAGARVLARTVLHKDEFKLLNVNGNFISEEGIDELKDIFEKSPELLASLEDNDPVREDDDDDEEEKESGDEGKDGEDELESKLKNLDVK | – | binds | binds | binds
